Results from patent EP3766512A1.
No constants are given. Whether binding was seen depends on the method and setting. Some results given as binding are weak or reduced against the parent protein; the word gives no strength.

Chains of the proteins cited; added tags and fusions are not shown. Lines headed by an entry give the natural chain unless they say otherwise; changes in a name come on top. Residues count along the entry.
UniProt P19909, residues 303-497: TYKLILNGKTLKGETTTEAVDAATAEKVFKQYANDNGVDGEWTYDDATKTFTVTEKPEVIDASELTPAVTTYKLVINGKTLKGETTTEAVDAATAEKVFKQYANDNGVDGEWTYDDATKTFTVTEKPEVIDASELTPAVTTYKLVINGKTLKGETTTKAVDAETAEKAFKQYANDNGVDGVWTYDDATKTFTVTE
UniProt P29460: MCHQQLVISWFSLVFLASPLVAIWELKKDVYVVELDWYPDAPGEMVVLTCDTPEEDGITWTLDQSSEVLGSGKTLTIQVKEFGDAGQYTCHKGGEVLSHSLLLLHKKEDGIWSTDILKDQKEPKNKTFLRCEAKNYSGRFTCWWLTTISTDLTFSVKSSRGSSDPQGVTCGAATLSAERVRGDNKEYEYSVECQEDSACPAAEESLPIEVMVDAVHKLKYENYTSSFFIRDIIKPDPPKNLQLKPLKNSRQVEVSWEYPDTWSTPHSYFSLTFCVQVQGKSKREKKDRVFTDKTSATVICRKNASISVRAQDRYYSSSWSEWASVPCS

Biological target: Protein G (chromatography bead) (UniProt P19909)
Assay: Protein G affinity chromatography bead

| Substance | binding |
| --- | --- |
| human IL-12Fc AAA (from UniProt P29460 23-328; P29459 23-219) (Fc fusion) | binds |
| human IL-12Fc AAQ (from UniProt P29460 23-328; P29459 23-219) (Fc fusion) | binds |
| human IL-12Fc WT (from UniProt P29460 23-328; P29459 23-219) (Fc fusion) | binds |
| human IL-12Fc AHH (from UniProt P29460 23-328; P29459 23-219) (Fc fusion) | binds |
| human IL-12Fc AAH (from UniProt P29460 23-328; P29459 23-219) (Fc fusion) | binds |
| human IL-12Fc NHH (from UniProt P29460 23-328; P29459 23-219) (Fc fusion) | binds |
| human IL-12Fc AHQ (from UniProt P29460 23-328; P29459 23-219) (Fc fusion) | binds |
| human IL-12Fc AAE (from UniProt P29460 23-328; P29459 23-219) (Fc fusion) | binds |
| human IL-12Fc IAQ (from UniProt P29460 23-328; P29459 23-219) (Fc fusion) | binds |
